Results published in patent US20230220480A1, “IRON-SCORE AND IN VITRO METHOD FOR IDENTIFYING HIGH RISK DLBCL SUBJECTS AND THERAPEUTIC USES AND METHODS” (CENTRE NATIONAL DE LA RECHERCHE SCIENTIFIQUE (CNRS), priority 2019, published 2023).
At least one structure is not confirmed: it was looked up by name or label, or the drawing left a doubt.

System: OCI-LY3 and DB cell lines
Test: Cell cycle analysis by flow cytometry (BrdU/DAPI)
Conditions: 72 h; 80 μM Deferasirox or IC50 Ironomycin

O=C(O)c1ccc(-n2nc(-c3ccccc3O)nc2-c2ccccc2O)cc1 [Deferasirox]
cell cycle distribution: blockade of BrdU incorporation and an increase in the G0/G1 phase
